# Measurements from patent publication US20160130327A1.
# Protein sequences, listed by entry. Tags and fused reporters are not part of them. Residues count along the entry.
# UniProt P12824, residues 24-743: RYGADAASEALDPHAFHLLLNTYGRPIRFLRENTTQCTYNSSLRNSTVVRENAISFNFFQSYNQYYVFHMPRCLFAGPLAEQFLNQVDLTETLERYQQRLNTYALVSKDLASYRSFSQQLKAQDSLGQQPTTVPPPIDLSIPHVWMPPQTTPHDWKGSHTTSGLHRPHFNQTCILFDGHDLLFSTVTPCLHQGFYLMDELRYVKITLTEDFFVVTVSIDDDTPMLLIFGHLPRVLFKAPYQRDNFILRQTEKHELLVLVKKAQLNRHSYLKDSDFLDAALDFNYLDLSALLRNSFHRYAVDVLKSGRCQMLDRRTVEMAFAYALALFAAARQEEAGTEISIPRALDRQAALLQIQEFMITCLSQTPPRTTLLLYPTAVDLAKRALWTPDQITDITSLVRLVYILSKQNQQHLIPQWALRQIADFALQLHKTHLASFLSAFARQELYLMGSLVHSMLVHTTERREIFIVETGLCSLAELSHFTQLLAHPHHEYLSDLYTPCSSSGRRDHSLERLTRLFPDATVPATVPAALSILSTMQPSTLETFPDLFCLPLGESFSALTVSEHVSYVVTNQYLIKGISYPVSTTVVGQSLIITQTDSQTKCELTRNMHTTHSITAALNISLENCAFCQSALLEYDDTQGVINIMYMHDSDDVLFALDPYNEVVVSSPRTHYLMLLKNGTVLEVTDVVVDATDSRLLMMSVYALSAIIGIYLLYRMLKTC
# Results are given in words; binding and its absence hold for the method and conditions named. Some results given as binding are weak or reduced against the parent protein; the word gives no strength.
# B1: 58.5 (antibody, V domains shown)
# VH: QSLEESGGRLVTPGGSLTLTCTVSGFSLSAYSVSWVRQAPGKGLEWIGIIGHSGNTYYASWAKGRFTISKTSTTVDLKITSLTTEDTATYFCAREDYRYGDYGYYWDFNFWGPGTLVTISS
# VL: ELDLTQTASPVSAPVGGTVTINCQASQNIYSNLAWYQQKPGQPPKLLIYGASTLASGVSSRFKGSRSGTEFTLTISDLECADAATYYCQSYVYSSSTADTFGGGTEVVVK
# B2: 223.4 (antibody, V domains shown)
# VH: QSLEESGGRLVTPGTPLTLTCTVSGFSLSAYSVSWVRQAPGKGLEWIGIIGHSGNTYYANWAKGRFTISKTSTTVDLKITSLTIEDTATYFCAREDYRYGDYGYYWDFNFWGPGTLVTISS
# VL: ELVMTQTPSPVSAPVGGTVTISCQASRSVYNENYVAWFQHRPGQPPKLLIYTTSILASGVPSRFKGRGSGTQFTLTISDVQCDDAATYYCAGDYDDNEENAFGGGTELEIL
# B3: 347.3 (antibody, V domains shown)
# VH: QSLEESEGRLVTPGTPLTLTCTVSGIDLSTYAMNWVRQAPGKGLEWIGIIGSSGGAYYASWAKGRCTISKTSTTVDLKITSPTTEDTATYFCAVSLYTYDDYADYFLWGPGTLVTISS
# VL: ELVLTQSPSLSASLGTTARLTCTLSTGYSVGKYPLVWLQQVPGRPPRYLLTYHTEEFKHQGSGVHSRFSGSKDTSENSFVLRIFGLQPEDEADYYCVTAHPTESSLHYVFGGGTQLTVT
# B4: 212.6 (antibody, V domains shown)
# VH: QSLEESGGRLVTPGTPLTLTCTVSGFSLSSYAMSWVRQAPGKGLEWIGIIGSSGNTYYASWAKGRFTISKTSTTVDLKITSPTTEDTATYFCARGGYSYDDYTPFDLWGPGTLVTVSS
# VL: ELVLTQSPSLSASLGTTARLTCTLSTGYSVGKYPLVWLQQVPGRPPRYLLTYHTEEFKHQGSGVHSRFSGSKDTSENAGVLSISGLQPEDEADYYCATAHATESSLHYVFGGGTQLTVT
# Biological target: gH (UL75) (human cytomegalovirus (CMV)) (UniProt P12824)
# Experiment: Western blot of denatured CMV virions
row,Binder,binding
1,B1,binds
2,B2,binds
3,B3,binds
4,B4,binds
